According to publication PMC10723533:
Results are given in words; binding and its absence hold for the method and conditions named. In cells and extracts the contact can be indirect. These calls come from enrichment with a bait or labelling near it, and not all partners need be listed. For some of these results: Sequences can lack the tags named with a protein.

T1: Paa1-L-YFP (S. pombe) (UniProt Q9UT08)
T1 sequence: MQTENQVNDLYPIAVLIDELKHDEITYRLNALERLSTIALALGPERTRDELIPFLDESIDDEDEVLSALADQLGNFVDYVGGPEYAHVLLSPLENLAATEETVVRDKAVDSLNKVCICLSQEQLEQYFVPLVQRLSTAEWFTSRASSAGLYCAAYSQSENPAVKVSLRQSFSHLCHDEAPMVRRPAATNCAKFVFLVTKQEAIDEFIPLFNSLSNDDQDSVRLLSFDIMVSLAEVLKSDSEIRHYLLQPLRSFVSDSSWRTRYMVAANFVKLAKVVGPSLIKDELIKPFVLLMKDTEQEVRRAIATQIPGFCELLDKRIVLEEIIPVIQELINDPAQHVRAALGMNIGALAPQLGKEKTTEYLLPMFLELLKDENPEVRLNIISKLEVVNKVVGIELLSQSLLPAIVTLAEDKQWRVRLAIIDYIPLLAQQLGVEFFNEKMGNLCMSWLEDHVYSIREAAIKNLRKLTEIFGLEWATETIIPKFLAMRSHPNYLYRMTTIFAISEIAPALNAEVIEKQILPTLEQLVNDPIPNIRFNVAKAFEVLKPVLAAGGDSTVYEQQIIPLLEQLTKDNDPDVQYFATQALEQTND

B1: Ekc1 (protein, UniProt O74511 1-838)
chain: MFWRLGQGFGFQSSSAIEAILDKPEDEINLKELLEENGVLDECKSHNPKLLEYLCKPEVLSQLIDYILEVDETEIPSADGGYEEPEHTRLSYIASEILSSDVWSICEACVENKTLMVKLWSFLDSEGPLNPLQASYFAKVNEHFLDKKTEETVAFIQSIDNFVEKILRHAETSAIMDLLLKFISMDRCNTAIGIADWLYSQGLIQSLLRLLSPYVDPDVQFTVADVIKAIIAISANSNEPGVIGPNSLSRELVSRQTITTLTDYMTDSKAPHSATSLINGVSIVIELIRKNNSDYDVTPVLQMPLDTHPPTTRDPIYLGTMLRLFAEKIPVFQKILLKPSTESDLMPTSFGKIKPLGFERFRICELYAELLHCSNMSLLSDPNGEAMVMQRDHLRDYLFRHNSCARDLVMSDEDDDDSTFSDKNSKDFKETEDMNGAEDMHGRAPQITKDNLNLTTTDSPMSEAEPVSEEEYKDVMETAKALHHGDDDAASDTSYEPLPESVIEDAKKLPVIGDFLKIEFIQNNVIPTILDHFFDYPWNNFLHNVVYDVVQQVLNAPMDKDQNYALAVDMFKQGKITEKIVYGQELNDKKVAKPSGFRAGYMGHLTIIADEVVKFVEHYSSTFDQELLNLINDEKWQNFVNKTLVETRNRDNQLLGGLEPSMVGYLEDMDEGEMLDANNLPEMQFALEQELESNSSDDDVVEVHRELSHNSSSNDEDDGNDEDPLSREMSRRLSFESANDSDQDNRDHFAQYMSQQISDNNANQFSSSDEDDDDDDEVVEWVSRGNENKYPRSNFFINGSDREDFSDSEEEDGNDSSDDDRGFAEEEYSDGLVLNHGK
B2: Ppe1 (enzyme, UniProt P36614 1-305)
chain: MFDLDEWIATVRKCKYLPEHQLKRLCEMVKVILMEESNIQPVRTPVTVCGDIHGQFYDLLELFRVGGELPSTNYIFMGDFVDRGYFSLETFTLFMLLKARYPDKITLLRGNHESRQITQVYGFYDECQTKYGNANVWKYCCQVFDFLTLAAVIDNKILCVHGGLSPEVRTLDQIRILARAQEIPHEGSFCDLMWSDPEDIESWTVSPRGAGWLFGSKVTTEFSQINDLTLIARAHQLVQEGYKYHFADKNLVTVWSAPNYCYRCGNVASVMKVDESLEPEFRIFSAVADEDRTVPPSRKRSEYFI
B3: Par2 (protein, UniProt P78759 1-627)
chain: MKGLRSKFVKALSLKDEQGSHKNGHSKSHYISKNGSYVETDDVKHTDTHHSSKHELKKLKSHFLKDTLKHKRNHHANSNNEKHENSDKKIHTTVLASGHEDSDYSTFLPVIETSKVKDANHFPPNYPEPKNDSVSSNIDEFPNDSISSASFLSVPQSTPPYLVSQPTPLNKFLAGAENVDIPHSLRPVPRREHSSQFQVSEKRTLVRLPSFDDVHTSEREELFIKKLEQCNIIFDFNDPSSDLASKEIKREALLQMIDYVSENRGISSASLFPYVVNTFSLNVFRPISPALNDYSSDMFALDDEPFLEPAWPHLEEVYLLFIKFLESPDFRASKAKSLVDRRFFNRLLALFDTEDPRERELLKTTLHRIYGKFLNLRSYIRKSMNNVFLQFIYEREKFHGIAELLEILGSIINGFAVPLKEEHKIFLSKVLIPLHQTKSVFLYHPQLTYCIVQFIDKDPSLTKAVLTGILKYWPRINSFKELLFLNEIEDIFEVLEPSEFVNIMSPLFQQLARSISSMHFQVAERALCLWSNEYFTSLVSQNVVTLLPIIYPSLYKTANEHWNSTIQAIACNVLQIFVDMDADFFNGLVEDYKQAIIKQEEVMIIRKQQWCQIEALAAENKPTDYLR
B4: Zds1 (protein, UniProt O14100 1-938)
chain: MSSSSVSNTLSIETKSDPKDPAFVASQESTECNEHDTTQLSGSSSEPLENNSSLTRSTDDPSVEIRSKLVSPDNEANLLSDQNITISNENNNENDTTEEAETSSGNEAADDEDSSSDAQSSVPSFSEIHDGMSEEELDKERKTLTHLRRISLQGADDPEIPTDWSVAMSPPETEQDASTLFWVPANLHPELNPTGWKSFLDLQVKNLKSPTATDTSSSPLEHIRSLRRRKSLLSRQVKADDAVINYQDGSPIVEKAYLKRHRSLRLNELEHLESLARDPHRMVSLVDGMSNGSPEDSPLLVSPNHFLQRSSRTTIRRTGASIRTIHRGKTSTLSGNRSHSILQKPTDTSPLHKIEPISADELVESDDSRTSALSNSQNPSDDVENQSDQALEVLSLTNPPKIDNASADTTLHKETNKIDKLYVSENKAESAVASESSLSEGTLALKAPAPENKPEKSSTSKPPVPENKAEDSVVLKSSVPEDKSENSIASKPSATEGIPENAIALQSSVPENKAEDSVVLKSSVPEDKSEDSVPSKSSVLEDKHENSVEIDKKADDSLPSNNKTEGYTPSVVREEKNYSEPNASPSVIPPRVPTPVPGRTLSPKPTRIPTPIPSSLNVSLESSKKPEIFHERHIPTPETGPNKPSKNNILKSTQVPVTPKQKSSTANKGSTSSPSPPSSESKKTKRSWGRLFVSGDSDKEHKEHKKDKQKKKNDQISSSSKSASSFKKDRDKESIFGSLFGSKKKQTEIPPVSSSPPHNDAPPKAKPISAPSELPNTTSVAEAKCQTVTDDEGTDQQSDEKSTEPKTFIPDKDYYWSRFPICTERAIYRLSHIKLSNAHRPLFQQVLLSNFMYSYLDLISRISSNRPMNNVQQSTAKPIRKDINGQQRRSEFSAENVKNELENLSYQFGDQRKRNLNRKGSTIHTVSQNIQKVSKNAK
B5: Elp1 (protein, UniProt O59704 1-1253)
chain: MKNLVTHLHHVFPNVNGSIKALAFNSISDKIYVVCGLDNENPGIEIYEISENDDVSKLVEFDSPSFVSDNGDIDEIQSMQFLGEPMAICLSLKGGDIVMVKVDPSPEEAPWEIIGNVENGIVASCWSTDEQVFCIITGGDTILFMTKNFDIISETSLSDADLNEFNKHISVGWGRSETQFRGKRVRAKLRDPTLPEKIDEGKLSDVDDGKTYICWRGDSQYVSINRLEKGPRRAIRVYSREGLLDSISEPQDGQQSLLSWKPSGSVLATIKSDSSDNSSKVIFFERNGLRHGEFSLRRREDEKYTGLAWNVSSSILAVSTENSVMLWTTGNYHWYLKKEINIPQNALISWHPEHANTLYITGKNHIEKVVFDLKYVTEFSTSPNDFGLIPVIDGSSLLVTPLSLCNIPPPMCRYKLSLDYNVQMTSINATSDMLFAADDRRLTAFTFNSQEDIAKFGEFDISTYAEGLNFKSLLGLSGNQVLLLADGTNNCSKFFVFQCDEDNESLKLLASESFESCILNASYCSEMLFFQTSSGKLISYNLNVKSIESISLSFPKPCSDFVVVPVHETFVPIGLTSYGRLYAEQRLLSTGVLSFFCTERFVLFTTTKNLLKFVHLVSTVDDLQVVEDDAVDRHDERCRVVERGSKIVASMPSKMAVVLQMPRGNLETIYPRIMVLDGVRTYIKALKYGDAFKVCRTHRLDLNILFDYDPDLFLKNIPVFVDGLYRVDYLDLFLTSLKPENVTTGMYSDTSKSQSQQSVTTIDNKVNLLCKIIREHLTSKYGDTHFQAIITSYLCESPPKIEAALGMISGLIKAQSETVDLAIEHMCFLVDVNMLFDHALGLYDLKLALLIAQQSQKDPREYVPFLHEFQKQESLRRKFNIDCYLKRYERALGHLKEMENAFDEFKNFTIQHKLYPRALELYKYDKEAQKEVLIIFAQYLRENGKSNEAAIAYESVGKISEAIEAYKSAGMWRECLSILQQTTNSEDLIRETAEDLASLCIEKREHCDAGSINLLYLSNPREAVIQMCKGSQYSEAIRIARATGDSSIYKDLLISVLGESFGEASELVADFRNQIKSQTERILVLREKKKEDPISWMEGTMEDQTPDDISLASTSLSTNRSLYTQYTKSSNSSKMTRNTSKNNRRLERKRARGKKGTVFEEEYLVNSLRRLIARVEEIRPEVHRLLEALVRCNMTTQASELQRNFANVIGTIGEKVIPILSVPVSTFETALGEQPQAPVVPNVKPFEKLSILI
B6: Elp2 (protein, UniProt O94533 1-760)
chain: MFQYEALHVGCNRIPTAATWSSNLGLIYGAERLIAVADPFKEINYLMAGHSGRINCVCELATNSEYRSPFILSGASDKTLRLWQLEEEYFTCIKTIELEATVNCLCVNENLVVCGCSNSSCIVYSWNAEQRNLTEISRFTCSEIIPLEFAIVKLDHGIILTVCGSSKKIMVYGSDSAISSFKLKAVLRGHLDWVRTLSFKKTSGSTATLASGSQDRYIRLWNISLWGSEDEKVSEEFFESVLSNKPVRFTLGKIDLKIVFDALLMGHEDWVMSVDWHPTKEMILSSSADSSMIVWEPDTNTGIWVVTGRMGEMASSHGSTTATGSAGGFWGGLWNPNGNCVVCWGRTGGWRLWKQDAGQWLQLPSISGHTKSVKGVAWDPEGKFYLSAGTDQTTRLFARFKKDNAWHEMARPQIHGYDLTSISCMPSRIGFLSCADEKVSRVFKFPKTIVRLLYRLCDTNIGEESLPDAANVPLLGLSNKATTASETGTVNAEEVQTPVADVIGSLNHPPFEEHLQRLLLFPEVEKLFGHGYEVYACAISNNGNIAATSCKSQTPEHAVIRLYETQSWNQQQVLKGHSLTVTTIKFSPDDRYILSAGRDRLVCLHEQAENLLDYNNFASIKAHSRIIWDASWAPKEMGYFFATASRDKFVKFWKINDNKKICDVAALQFSDAVTAVDFAPFFHNDELLLAVGTEAGKIFIWRCPRENLTKWYPTRLPDHMAPMESINQILWKPTFETMGLYSLLIAGEDTSVRLLNVTLG
B7: Elp3 (enzyme, UniProt O14023 1-544)
chain: MSTSSLAFLKAKACAEIVAELIASENQNKVINLNALKMRISKKHQLSESPRLTDIIAAIPPDAYLKESLMRKLRAKPVRTASGIAVVAVMCKPHRCPHIAMTGNVCVYCPGGPDSDFEYSTQSYTGYEPTSMRAIRARYDPYEQARGRVEQLRSLGHTVDKVEYIIMGGTFMSLPESYRHTFIANLHNALSGATTEDLDEAVKFSEQSETKCVGITIETRPDYCLDQHLDEMLRYGCTRLEIGVQSVYEDVARDTNRGHTVKAVCETFQLAKDTGYKVVTHMMPDLPNVGMERDIFQFQEYFENPAFRTDGLKLYPTLVIRGTGLYELWKTGRYKNYTPNALVDLIARILALVPPWTRIYRIQRDIPMPLVSSGVETGNLRELALNRMRDLGTKCRDIRAREVGMQEVHHKIHPEQVELLRRDYTANGGWETFLSYEDPKQDILIGLLRLRQCSDKTYRPEFTSQPTSLVRELHVYGSAVPVHSRDPKKFQHQGFGTLLLEEAERIAKYEHGSKKISVISGVGVRKYYQKLGYTLDGPYMSKWL

Each binder was assayed against T1, Paa1-L-YFP (S. pombe) (assay: affinity purification with mass spectrometry; YFP-tagged bait (Paa1-L-YFP or Pab1-L-YFP) on GFP-Trap beads; cells 1 hour in EMM2-N, crosslinked with 1% formaldehyde for 10 min at 25 °C; lysis buffer 25 mM Tris HCl pH 7.5, 150 mM NaCl, 0.5% SDS (diluted to 0.1%), 1% NP40; washes with 500 mM NaCl).

binding, binds:
B1
B2
B3
B4

What follows are binders tested against GFP-Pab1 (S. pombe) (assay: affinity purification with mass spectrometry; GFP-Pab1 (nmt41 promoter) on GFP-TRAP magnetic agarose beads; cells in EMM2 or shifted to EMM2-N for 1 hour; NP-40 buffer (1% NP-40, 150 mM NaCl), 90 minutes at 4°C; 2D-LC-MS/MS).

binding, binds:
B5
B6
B7
